Test results published in patent US20100098789A1, “Compositions of ground/powdered nuts/nut butters with curcuminoids/turmeric/mix having improved health benefits and oxidative stability” (priority 2008, published 2010).
Entries after “also recorded” stand apart in the source; their conditions may differ.

Assay: Solubility of curcumin in almond oil and water (1 g/100 ml, stirred, filtered, filtrate colour)
Assay type: physicochemical
Text: (A) Almond oil (B) water. […] We performed the following experiment to compare the solubilities of curcumin in water and almond oil. […] The filtrate was yellow in color.

COc1cc(/C=C/C(=O)CC(=O)/C=C/c2ccc(O)c(OC)c2)ccc1O [curcumin, (1E,6E)-1,7-bis (4-hydroxy-3-methoxyphenyl) hepta-1,6-diene 3,5-dione]
Solubility in almond oil (1 g curcumin in 100 ml almond oil): very soluble; also recorded: much higher concentration of dissolved curcumin
Solubility in water (1 g curcumin in 100 ml water): not soluble; also recorded: negligible concentration of dissolved curcumin
